# Data published in ChEMBL document CHEMBL1147899, “Raman, FT-IR, NMR spectroscopic data and antimicrobial activity of bis[micro2-(benzimidazol-2-yl)-2-ethanethiolato-N,S,S-chloro-palladium(II)] dimer, [(micro2-CH2CH2NHNCC6H4)PdCl]2.C2H5OH complex” (2007).
# Test system: Candida albicans
# Assay: Antifungal activity against Candida albicans ATCC 10231 at 100 ug after 72 hrs by disk diffusion method
# Type: functional, organism-based
sequence,measurement,value
NYSTATIN,inhibition zone (IZ),20 mm
